The hits were mostly taken out for another list; the other results follow. Calls of active or inactive are those of the source. Rule as the data show it: active = growth inhibition above about 70%; inactive = the rest.
Experiment: NCI Yeast Anticancer Drug Screen. Data for the rad52 strain (AID 147);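 also: 0% = growth of vehicle-treated control cultures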
Details: S. cerevisiae rad52 mutant growth inhibition, stronger effect = higher value
Description: Growth inhibition of yeast strains with defined genetic alterations is measured as a screen for potential anti-cancer activity. Selected strains with alterations in DNA damage repair or cell cycle control were exposed to compounds and growth inhibition was measured relative to vehicle treated controls. The strain used in this assay is rad52

Measured: growth inhibition

O=C(O)C(O)C(O)C1[O][Sb][O]C1CO (stereo not given)
inactive: at 1.2 µM 1% | at 3.7 µM 2% | at 11.0 µM 6% | at 33.0 µM 1% | at 100.0 µM -5%

COc1cc2c3cc1Oc1c(O)c(OC)cc4c1[C@H](Cc1ccc(cc1)Oc1cc(ccc1O)C[C@H]3N(C)CC2)N(C)CC4
inactive: at 1.2 µM -2% | at 3.7 µM -7% | at 11.0 µM -4% | at 33.0 µM -8% | at 100.0 µM -8%

CCOC(=O)CNP(=S)(OCC)OCC
inactive: at 1.2 µM 0% | at 3.7 µM 2% | at 11.0 µM 2% | at 33.0 µM 5% | at 100.0 µM 4%

O=C(NCP(=O)(Oc1ccccc1)Oc1ccccc1)OCc1ccccc1
inactive: at 1.2 µM -3% | at 3.7 µM -3% | at 11.0 µM -3% | at 33.0 µM -2% | at 100.0 µM -7%

CCCCN(CCCC)CC(=O)c1ccc(I)cc1
inactive: at 1.2 µM 0% | at 3.7 µM 1% | at 11.0 µM 9% | at 33.0 µM 21% | at 100.0 µM 45%

Arranged by length of the SMILES (largest number first): three of the compounds above.
COc1cc2c3cc1Oc1c(O)c(OC)cc4c1[C@H](Cc1ccc(cc1)Oc1cc(ccc1O)C[C@H]3N(C)CC2)N(C)CC4
inactive: at 1.2 µM -2% | at 3.7 µM -7% | at 11.0 µM -4% | at 33.0 µM -8% | at 100.0 µM -8%

O=C(O)C(O)C(O)C1[O][Sb][O]C1CO (stereo not given)
inactive: at 1.2 µM 1% | at 3.7 µM 2% | at 11.0 µM 6% | at 33.0 µM 1% | at 100.0 µM -5%

CCCCN(CCCC)CC(=O)c1ccc(I)cc1
inactive: at 1.2 µM 0% | at 3.7 µM 1% | at 11.0 µM 9% | at 33.0 µM 21% | at 100.0 µM 45%

(listing goes on)

O=P1(NNc2ncccn2)SC(NN=C2CCCCC2)=NC12CCCCC2 (stereo not given)
inactive: at 1.2 µM -2% | at 3.7 µM -4% | at 11.0 µM -1% | at 33.0 µM -1% | at 100.0 µM 4%

Cc1cc[c]([Sb]2[O]C(CO)C(C(O)C(O)C(=O)O)[O]2)cc1 (stereo not given)
inactive: at 1.2 µM 0% | at 3.7 µM 2% | at 11.0 µM 0% | at 33.0 µM -4% | at 100.0 µM -9%

O=C(CCN1CC1)Nc1ccccc1
inactive: at 1.2 µM -1% | at 3.7 µM 1% | at 11.0 µM 1% | at 33.0 µM -4% | at 100.0 µM 51%

Source: PubChem BioAssay (NCI)
